The results in this text go back to paper PMC7935965.

Sequences of proteins named here, by UniProt entry; tags and fusion partners are left off.
UniProt Q9BUR4: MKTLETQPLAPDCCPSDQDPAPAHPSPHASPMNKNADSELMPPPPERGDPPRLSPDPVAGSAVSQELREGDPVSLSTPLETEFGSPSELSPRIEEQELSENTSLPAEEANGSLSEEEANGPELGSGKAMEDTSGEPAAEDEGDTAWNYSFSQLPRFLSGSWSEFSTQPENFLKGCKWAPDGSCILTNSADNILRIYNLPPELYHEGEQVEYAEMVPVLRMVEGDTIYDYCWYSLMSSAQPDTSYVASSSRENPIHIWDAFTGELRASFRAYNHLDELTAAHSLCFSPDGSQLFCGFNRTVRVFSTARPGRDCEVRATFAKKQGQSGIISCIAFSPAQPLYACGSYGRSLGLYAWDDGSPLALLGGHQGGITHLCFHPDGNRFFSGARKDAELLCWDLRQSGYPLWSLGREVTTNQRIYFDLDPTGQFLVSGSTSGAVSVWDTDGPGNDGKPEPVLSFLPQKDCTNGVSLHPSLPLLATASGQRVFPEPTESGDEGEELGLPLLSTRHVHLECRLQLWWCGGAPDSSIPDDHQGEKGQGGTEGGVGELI

This assay deals with T1, Flag-RecQL4 (HEK293) (human) (UniProt O94761).
T1 sequence: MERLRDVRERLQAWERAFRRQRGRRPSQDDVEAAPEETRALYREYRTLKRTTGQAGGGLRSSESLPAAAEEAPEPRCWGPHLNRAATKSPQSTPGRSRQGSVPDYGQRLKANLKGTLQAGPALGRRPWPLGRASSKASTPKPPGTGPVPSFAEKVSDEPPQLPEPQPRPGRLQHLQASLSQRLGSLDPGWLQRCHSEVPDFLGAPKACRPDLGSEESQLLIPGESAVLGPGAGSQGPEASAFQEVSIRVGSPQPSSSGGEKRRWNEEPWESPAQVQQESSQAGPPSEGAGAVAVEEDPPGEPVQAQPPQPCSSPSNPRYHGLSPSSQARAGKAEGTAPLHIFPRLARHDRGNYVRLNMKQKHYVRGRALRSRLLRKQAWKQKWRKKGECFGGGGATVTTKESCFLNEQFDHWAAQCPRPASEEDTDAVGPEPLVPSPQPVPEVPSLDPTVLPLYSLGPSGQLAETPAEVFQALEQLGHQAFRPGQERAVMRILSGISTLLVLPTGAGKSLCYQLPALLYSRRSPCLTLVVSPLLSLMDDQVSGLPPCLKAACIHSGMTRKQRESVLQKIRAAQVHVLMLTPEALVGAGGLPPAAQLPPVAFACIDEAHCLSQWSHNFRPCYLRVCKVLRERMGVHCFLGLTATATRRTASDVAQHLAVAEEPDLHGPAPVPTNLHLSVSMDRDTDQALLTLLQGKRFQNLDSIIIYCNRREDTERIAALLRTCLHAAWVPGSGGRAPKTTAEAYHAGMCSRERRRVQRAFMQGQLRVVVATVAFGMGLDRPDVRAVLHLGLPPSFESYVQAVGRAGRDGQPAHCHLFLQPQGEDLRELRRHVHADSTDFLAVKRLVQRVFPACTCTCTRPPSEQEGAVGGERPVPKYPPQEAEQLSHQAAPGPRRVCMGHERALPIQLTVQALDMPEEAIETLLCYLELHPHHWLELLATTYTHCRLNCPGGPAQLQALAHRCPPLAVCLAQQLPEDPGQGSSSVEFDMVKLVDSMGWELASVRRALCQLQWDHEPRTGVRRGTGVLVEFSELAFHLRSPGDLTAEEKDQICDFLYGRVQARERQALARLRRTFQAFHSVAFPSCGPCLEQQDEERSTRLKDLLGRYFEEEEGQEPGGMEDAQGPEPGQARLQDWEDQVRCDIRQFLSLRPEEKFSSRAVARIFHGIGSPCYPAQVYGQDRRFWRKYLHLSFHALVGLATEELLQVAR
The assay is described as follows: co-IP; anti-Flag immunoprecipitation from lysate of HEK293 cells transfected with Flag-RecQL4; western blot for endogenous WRAP53β. On the technique in general: Immunoblotting shows a protein as a band on a membrane.

These are yes or no findings as the source states them, for the method shown. In cells and extracts the contact can be indirect. Some results given as binding are weak or reduced against the parent protein; the word gives no strength. Where a sequence is shown, tags or fusion partners need not be part of it.

On to “endogenous WRAP53β (from UniProt Q9BUR4 1-548)”, for which the binding result is listed as “binds”.
